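Human melanoma cells were exposed to a pair of drugs for 72 h in 1,536-well plates and read by automated microscopy after fixing and staining. Values are the number of DAPI-stained nuclei as a percentage of the DMSO control: 100 is no effect, lower means fewer cells. Concentrations were fixed for each drug; these are the higher of two levels. The file gives one value for each pair and line, without errors, so small differences may be noise.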 This is part of the screen, not chosen by result. An entry leaves out what has no value listed here. A dash means that no value is listed here.

Every entry is a combination with ruxolitinib at 5000 nM: N#CC[C@H](C1CCCC1)n1cc(-c2ncnc3[nH]ccc23)cn1

Partner	C32	COLO 792	WM451Lu	WM3619	COLO 829	COLO 800
CC[C@]1(O)C[C@H]2CN(CCc3c([nH]c4ccccc34)[C@@](C(=O)OC)(c3cc4c(cc3OC)N(C=O)[C@H]3[C@@](O)(C(=O)OC)[C@H](OC(C)=O)[C@]5(CC)C=CCN6CC[C@]43[C@@H]65)C2)C1 at 0.5 nM	105	92.5	40.5	61.1	101	132
C[C@]1(c2nc3c(C(N)=O)cccc3[nH]2)CCCN1 at 7000 nM	62.6	66.0	93.8	96.4	74.0	40.6
CC1(C)CCC(c2ccc(Cl)cc2)=C(CN2CCN(c3ccc(C(=O)NS(=O)(=O)c4ccc(N[C@H](CCN5CCOCC5)CSc5ccccc5)c(S(=O)(=O)C(F)(F)F)c4)cc3)CC2)C1 at 2000 nM	67.5	16.5	87.8	82.8	121	88.0
COc1cc2ncnc(Nc3ccc(Oc4ccccc4)cc3)c2cc1OC at 10000 nM	107	76.1	88.9	63.4	108	69.4
Cc1cn(-c2cc(NC(=O)c3ccc(C)c(Nc4nccc(-c5cccnc5)n4)c3)cc(C(F)(F)F)c2)cn1 at 1000 nM	77.0	83.7	112	93.1	118	124
Nc1ncn([C@H]2C[C@H](O)[C@@H](CO)O2)c(=O)n1 at 500 nM	89.1	62.3	74.1	76.2	75.4	48.4
CCCCCCCCCCCCCCCCCCOP(=O)([O-])OC1CC[N+](C)(C)CC1 at 2000 nM	78.2	125	96.5	92.3	-	161
C[C@]1(O)C[C@@H](c2nc(-c3ccc4ccc(-c5ccccc5)nc4c3)c3c(N)nccn32)C1 at 2000 nM	103	137	80.8	79.1	126	90.2
Nc1nc(F)nc2c1ncn2[C@@H]1O[C@H](CO)[C@@H](O)[C@@H]1O at 1000 nM	83.1	59.8	85.1	89.9	105	128
O=c1cc(-c2cccc3c2Sc2ccccc2S3)oc(N2CCOCC2)c1 at 5000 nM	96.9	90.0	99.6	69.4	103	98.2
CC(C)CCN1c2nc(Nc3cc(F)c(O)c(F)c3)ncc2N(C)C(=O)C1C (configuration not stated) at 1000 nM	80.0	93.0	79.8	105	86.2	66.3
Cc1ccc(Nc2nccc(N(C)c3ccc4c(C)n(C)nc4c3)n2)cc1S(N)(=O)=O at 2000 nM	106	68.8	73.7	88.5	80.0	82.8
O=C(Oc1ccc([N+](=O)[O-])cc1)N1CCC(C(O)(c2ccc3c(c2)OCO3)c2ccc3c(c2)OCO3)CC1 at 5000 nM	95.1	107	103	134	88.8	157
COCC[n+]1c2c(n(Cc3cnccn3)c1C)C(=O)c1ccccc1C2=O at 2 nM	77.9	50.8	30.9	73.0	62.7	23.9
Cn1cc(C2=C(c3cn(C4CCN(Cc5ccccn5)CC4)c4ccccc34)C(=O)NC2=O)c2ccccc21 at 4000 nM	109	112	90.3	91.5	101	124
CNC(=O)c1cc(Oc2ccc(NC(=O)Nc3ccc(Cl)c(C(F)(F)F)c3)cc2)ccn1 at 2000 nM	106	99.2	130	93.7	118	106
N.N.[Cl][Pt][Cl] at 8000 nM	69.1	56.5	68.4	50.3	44.9	96.3
CCCS(=O)(=O)Nc1ccc(F)c(C(=O)c2c[nH]c3ncc(Cl)cc23)c1F at 400 nM	89.0	131	69.1	91.7	118	118
COc1ccc(-c2ccc3c(N4CCOCC4)nc(N4C[C@@H](C)O[C@@H](C)C4)nc3n2)cc1CO at 100 nM	93.0	92.4	88.0	77.0	120	125

2 of the entries, repeated:

- CCCS(=O)(=O)Nc1ccc(F)c(C(=O)c2c[nH]c3ncc(Cl)cc23)c1F at 400 nM : C32: 89.0; COLO 792: 131; WM451Lu: 69.1; WM3619: 91.7; COLO 829: 118; COLO 800: 118
- Cc1ccc(Nc2nccc(N(C)c3ccc4c(C)n(C)nc4c3)n2)cc1S(N)(=O)=O at 2000 nM : C32: 106; COLO 792: 68.8; WM451Lu: 73.7; WM3619: 88.5; COLO 829: 80.0; COLO 800: 82.8

From a melanoma drug combination screen (doi:10.1371/journal.pone.0140310); values rounded.